These are yes or no findings as the source states them, for the method shown. Some binding calls cover weakened binding; strength is not graded here. For part of these data: Where a sequence is shown, tags or fusion partners need not be part of it.
Columns and labels:
[1] = molecular target: T1, human MCAM-Fc protein (extracellular domain of human MCAM fused to human IgG) (human) (UniProt P43121); test: summary of Examples 2-3
T1 sequence: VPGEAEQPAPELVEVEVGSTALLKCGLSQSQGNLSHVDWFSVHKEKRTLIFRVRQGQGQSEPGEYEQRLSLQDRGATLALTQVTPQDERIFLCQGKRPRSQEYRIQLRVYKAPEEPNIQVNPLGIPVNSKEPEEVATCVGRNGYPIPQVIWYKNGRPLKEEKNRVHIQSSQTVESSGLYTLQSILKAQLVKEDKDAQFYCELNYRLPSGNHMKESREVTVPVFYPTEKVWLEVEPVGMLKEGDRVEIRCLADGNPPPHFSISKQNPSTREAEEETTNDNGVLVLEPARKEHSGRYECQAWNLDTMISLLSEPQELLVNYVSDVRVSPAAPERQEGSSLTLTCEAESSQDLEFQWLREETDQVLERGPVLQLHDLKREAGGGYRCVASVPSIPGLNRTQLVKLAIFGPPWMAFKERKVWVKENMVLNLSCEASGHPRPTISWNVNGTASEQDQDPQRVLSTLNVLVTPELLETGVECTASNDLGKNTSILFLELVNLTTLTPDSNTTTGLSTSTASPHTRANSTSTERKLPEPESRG

[2] = molecular target: T2, human MCAM (full length, expressed on the surface of transfected cells) (human) (UniProt P43121); test: cells expressing human MCAM
T2 sequence: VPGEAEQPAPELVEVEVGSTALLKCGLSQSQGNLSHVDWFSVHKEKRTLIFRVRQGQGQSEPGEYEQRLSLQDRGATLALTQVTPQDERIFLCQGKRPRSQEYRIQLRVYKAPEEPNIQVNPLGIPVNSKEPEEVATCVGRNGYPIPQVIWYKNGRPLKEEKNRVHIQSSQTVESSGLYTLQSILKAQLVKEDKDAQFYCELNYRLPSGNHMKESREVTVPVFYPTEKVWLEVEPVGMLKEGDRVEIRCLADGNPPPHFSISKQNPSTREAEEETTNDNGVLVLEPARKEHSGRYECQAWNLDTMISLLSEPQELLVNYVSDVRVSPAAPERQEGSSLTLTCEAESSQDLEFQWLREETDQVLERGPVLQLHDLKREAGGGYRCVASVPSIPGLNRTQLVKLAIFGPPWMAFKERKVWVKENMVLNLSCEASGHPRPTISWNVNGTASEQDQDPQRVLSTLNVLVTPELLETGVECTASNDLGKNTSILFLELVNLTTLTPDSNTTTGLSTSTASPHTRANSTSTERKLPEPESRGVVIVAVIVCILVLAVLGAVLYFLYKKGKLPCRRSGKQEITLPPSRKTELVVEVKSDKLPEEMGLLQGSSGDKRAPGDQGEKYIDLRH

[3] = molecular target: T3, combination of human MCAM domains 1 and 2 (MCAMhFc domain construct) (human) (UniProt P43121); test: ForteBio (BLI), MCAMhFc domain on anti-human IgG Fc biosensor, antibody at 5 ug/ml
T3 sequence: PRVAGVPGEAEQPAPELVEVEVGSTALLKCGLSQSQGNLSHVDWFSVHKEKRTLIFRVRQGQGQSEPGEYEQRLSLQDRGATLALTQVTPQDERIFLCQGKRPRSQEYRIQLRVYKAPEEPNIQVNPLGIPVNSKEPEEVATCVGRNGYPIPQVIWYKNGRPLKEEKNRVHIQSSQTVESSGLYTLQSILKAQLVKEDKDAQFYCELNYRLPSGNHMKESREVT

Measured: binding

B1: rat anti-human MCAM monoclonal antibody clone 2107.4.10 (antibody, V domains shown)
VH: QVQLKESGPGLVQSSQTLSLTCTVSGFSLTSNGVSWVRQPPGKGLEWIAAISSGGSTYYNSAFKSRLSISRNTSKSQVLLKMNSLQTEDTGMYFCARHRPFYFDYWGQGVMVTVSS
VL: DIQVTQSPSLLSASVGDRVTLNCKGSQNIYKSLAWFRLKRGEAPKLLIYDANSLQTGIPSRFSGSGSGTDFTLTITSLQPEDVATYFCQQYYSGYTFGAGTKLELK
binds: [1] | [2] | [3]

B2: rat anti-human MCAM monoclonal antibody clone 2120.4.19 (antibody, V domains shown)
VH: QVQLKESGPGLVQPSQTLSLTCTVSGFSLTSNGVSWVRQPPGKGLEWIAAISSGGTTYYNSAFKSRLSISRNTSKSQVLLKMNSLQTEDTAMYFCARRYGYGWYFDFWGPGTMVTVSS
VL: DIRMTQSPSLLSASVGDRVTLNCKASQNIYNSLAWYQQKLGEGPKVLIFNANSLQTGIPSRFSGSGSGTDFTLTISSLQPEDFATYFCQQFYSGYTFGAGTKLELK
binds: [1] | [2] | [3]
